This is an account of results in US7098025.

Chains of the proteins cited; added tags and fusions are not shown. Lines headed by an entry give the natural chain unless they say otherwise; changes in a name come on top. Chains listed by the source or under a name are the forms on record and can include a tag or linker.
UniProt Q9WTN3: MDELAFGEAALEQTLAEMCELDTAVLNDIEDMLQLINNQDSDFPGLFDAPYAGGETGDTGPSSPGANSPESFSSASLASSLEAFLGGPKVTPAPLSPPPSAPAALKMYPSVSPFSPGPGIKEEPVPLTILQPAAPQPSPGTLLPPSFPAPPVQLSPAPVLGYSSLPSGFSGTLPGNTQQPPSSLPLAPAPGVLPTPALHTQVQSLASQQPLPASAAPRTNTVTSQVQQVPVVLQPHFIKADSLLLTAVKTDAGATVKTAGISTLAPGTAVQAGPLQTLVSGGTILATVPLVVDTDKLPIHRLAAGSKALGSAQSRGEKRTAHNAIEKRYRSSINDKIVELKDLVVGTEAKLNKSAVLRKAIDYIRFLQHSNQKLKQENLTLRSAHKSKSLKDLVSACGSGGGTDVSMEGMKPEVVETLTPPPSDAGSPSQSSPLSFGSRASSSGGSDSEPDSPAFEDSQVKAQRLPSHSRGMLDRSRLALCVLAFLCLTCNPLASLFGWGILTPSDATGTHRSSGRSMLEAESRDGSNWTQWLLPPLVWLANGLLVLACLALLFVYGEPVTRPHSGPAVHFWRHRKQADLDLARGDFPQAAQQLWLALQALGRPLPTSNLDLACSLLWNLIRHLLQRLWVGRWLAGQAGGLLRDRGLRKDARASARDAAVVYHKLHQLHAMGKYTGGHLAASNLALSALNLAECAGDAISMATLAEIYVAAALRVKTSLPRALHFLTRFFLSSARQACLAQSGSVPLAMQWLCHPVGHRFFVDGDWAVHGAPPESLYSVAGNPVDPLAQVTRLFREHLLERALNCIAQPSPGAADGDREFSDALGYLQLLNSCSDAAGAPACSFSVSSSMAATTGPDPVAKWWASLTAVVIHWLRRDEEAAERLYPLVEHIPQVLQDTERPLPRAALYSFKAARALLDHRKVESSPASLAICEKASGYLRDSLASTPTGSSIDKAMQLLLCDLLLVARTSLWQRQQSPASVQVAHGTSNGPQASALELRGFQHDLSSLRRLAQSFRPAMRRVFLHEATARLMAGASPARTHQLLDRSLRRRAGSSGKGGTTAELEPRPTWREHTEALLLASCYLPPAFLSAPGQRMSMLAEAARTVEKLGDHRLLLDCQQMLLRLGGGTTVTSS
PPARgamma2/RXRalpha heterodimer (Homo sapiens / Mus musculus), one chain, as listed by the source, chain 2 of 2: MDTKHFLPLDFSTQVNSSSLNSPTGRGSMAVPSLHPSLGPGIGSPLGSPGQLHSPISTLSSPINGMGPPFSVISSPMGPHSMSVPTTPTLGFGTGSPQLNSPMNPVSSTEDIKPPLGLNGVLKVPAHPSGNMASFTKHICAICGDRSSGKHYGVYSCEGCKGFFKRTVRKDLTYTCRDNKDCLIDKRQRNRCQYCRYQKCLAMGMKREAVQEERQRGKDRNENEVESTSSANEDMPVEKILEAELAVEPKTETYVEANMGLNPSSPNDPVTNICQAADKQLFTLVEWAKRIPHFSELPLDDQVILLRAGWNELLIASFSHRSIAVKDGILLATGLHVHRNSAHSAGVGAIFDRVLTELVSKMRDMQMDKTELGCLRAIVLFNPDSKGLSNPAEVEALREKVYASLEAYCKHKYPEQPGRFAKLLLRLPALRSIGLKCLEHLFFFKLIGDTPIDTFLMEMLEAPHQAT
PPARgamma2/RXRalpha heterodimer (Homo sapiens / Mus musculus), one chain, as listed by the source, chain 1 of 2: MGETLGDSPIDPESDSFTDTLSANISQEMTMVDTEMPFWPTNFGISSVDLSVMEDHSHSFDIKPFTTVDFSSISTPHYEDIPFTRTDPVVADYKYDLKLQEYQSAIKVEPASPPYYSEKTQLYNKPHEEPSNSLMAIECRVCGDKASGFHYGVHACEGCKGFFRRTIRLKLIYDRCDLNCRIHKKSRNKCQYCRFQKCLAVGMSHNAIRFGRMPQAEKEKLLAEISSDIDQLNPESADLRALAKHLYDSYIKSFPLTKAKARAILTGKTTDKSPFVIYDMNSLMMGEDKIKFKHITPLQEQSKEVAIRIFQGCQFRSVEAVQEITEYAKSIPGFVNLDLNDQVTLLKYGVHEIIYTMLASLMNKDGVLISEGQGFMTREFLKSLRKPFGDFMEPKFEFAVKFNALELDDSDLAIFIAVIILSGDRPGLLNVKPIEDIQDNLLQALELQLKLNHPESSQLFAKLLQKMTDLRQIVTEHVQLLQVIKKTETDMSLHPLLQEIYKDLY

For part of these data: A negative result means that nothing was seen under these conditions. For part of these data: The comparison behind a weaker result is the experiment's own reference, which may not be listed here. For part of these data: The exact form of at least one protein or probe is not confirmed.

Data set [1] concerns SREBP-1a (ADD-1/SREBP-1). The data set can be described thus: competition with a labelled probe. To be noted: unable to compete at 10-100x; purified recombinant protein; protein details: baculovirus-produced, partially purified; variant of PPARgamma3 E-box (LF-102, core printed).
In data set [2] the test system is ADD-1/SREBP-1. The data set can be described thus: competition with a labelled probe. As to conditions: similar data with in vitro translated protein; protein translated in vitro; variant of PPARgamma3 E-box (LF-102, core printed).
In the next data set the test system is ADD-1. The data set can be described thus: activity in cells. To be noted: pGL3gamma3p800-E-boxmut not stimulated, Hep G2, protein in cells, protein details: expression vector, variant of PPARgamma3 E-box (LF-102, core printed), only the site is given.
The next data set has as its target SREBP-1a (Mus musculus) (UniProt Q9WTN3). The experiment in a line: activity in cells. To be noted: qualitatively similar to ADD-1, Hep G2, protein in cells, protein details: expression vector, only the site is given.
Data set [3] relates to SREBP-1a (ADD-1/SREBP-1). The experiment in a line: EMSA. As to conditions: purified recombinant protein; protein details: baculovirus-produced, partially purified; label: 32P (T4-PNK). A general note: Mobility shift assays separate free from complexed probe on a gel.
The subject of data set [4] is ADD-1/SREBP-1. The experiment in a line: EMSA. As to conditions: similar data with in vitro translated protein; protein translated in vitro; label: 32P (T4-PNK).
Data set [5] relates to PPARgamma2/RXRalpha heterodimer (Homo sapiens / Mus musculus). The experiment in a line: competition with a labelled probe. As to conditions: 10-200x cold competitor vs apoA-II J probe; less efficient than J site; protein translated in vitro; protein details: rabbit reticulocyte lysate (Promega).

With “ATTCATGCATCAT (double strand) [PPARgamma3 E-box mut (LF-106; core printed)]”, the binding result in the data set on SREBP-1a (ADD-1/SREBP-1) [1] and in the data set with ADD-1/SREBP-1 [2] was “no binding” each time. Further, the “activity on this sequence” value is given as “not active” in the data set on ADD-1 and “not active” in the data set with SREBP-1a (Mus musculus) (variant of PPARgamma3 E-box (LF-102, core printed)).

On to “ATTCATGTGACAT (double strand) [PPARgamma3 E-box (LF-102; core printed)]”, for which the binding result with SREBP-1a (ADD-1/SREBP-1) [3] and in the data set with ADD-1/SREBP-1 [4] was “binds” in each case. The “activity on this sequence” value with SREBP-1a (Mus musculus) was “active”.

“GATCCCGAACGTGACCTTTGTCCTGGTCCC (double strand) [ACO PPRE]”: the binding result in data set [5] is listed as “binds more weakly”.

As to “GATCCGTCTGCCCTTTCCCCCTCTTCA (double strand) [LPL PPRE]”, the binding result in data set [5] is given as “binds more weakly”.
